# In all, about 310,000 compounds went through this assay and about 17,000 (5.5%) were called active. This list was built around the results that the source calls inconclusive (neither active nor inactive); the mix of calls is not that of the screen. Calls follow the shape of the dose curve; as a rule, active = well fitted inhibition curve with a large enough effect; inconclusive = small, poorly fitted or top-dose-only effect, or effect the other way; inactive = no such curve, though single readings can be large or run the other way. A potency beside an inconclusive call is a rough fit, not a confirmed value.
# Amino acid sequences for entries named in this document (tags omitted). A change or cut given only in a name is not applied to a line headed by its entry.
# UniProt P51450: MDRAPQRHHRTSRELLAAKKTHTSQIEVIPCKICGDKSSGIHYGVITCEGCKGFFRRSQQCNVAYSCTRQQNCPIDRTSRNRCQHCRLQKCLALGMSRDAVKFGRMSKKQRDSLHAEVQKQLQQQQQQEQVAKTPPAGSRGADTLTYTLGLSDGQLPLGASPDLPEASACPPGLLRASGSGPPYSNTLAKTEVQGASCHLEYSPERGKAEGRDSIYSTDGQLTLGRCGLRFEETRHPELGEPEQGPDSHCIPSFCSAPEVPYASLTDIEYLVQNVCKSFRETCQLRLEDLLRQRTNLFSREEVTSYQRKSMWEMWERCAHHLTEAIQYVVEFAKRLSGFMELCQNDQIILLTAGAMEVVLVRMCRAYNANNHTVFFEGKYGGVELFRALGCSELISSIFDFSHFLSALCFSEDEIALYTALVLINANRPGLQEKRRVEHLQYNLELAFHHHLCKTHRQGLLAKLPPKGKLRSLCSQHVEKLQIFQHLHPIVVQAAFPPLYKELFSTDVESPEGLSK
# Target: Nuclear receptor ROR-gamma (Mus musculus) (UniProt P51450)
# Assay: qHTS for inhibitors of ROR gamma transcriptional activity; also: nearly all actives have a fitted effect of over 60% in size
# Conditions: Drosophila S2 Gal4-RORgamma UAS-luciferase reporter, 20 h; activity change, negative = inhibition: at 53.6 µM (top of the series)
# In short: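 Stably transfected Drosophila Schneider cells are the test system, with ROR gamma fused to Gal4 and luciferase under UAS control; luminescence is read after 20 hr of 700 uM copper sulfate induction at ambient temperature.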
# % is scaled to controls: 0 for no effect and ±100 for the full control effect; potency is read from the fitted curve at half-maximal effect.
Structure (SMILES),Potency,"activity change, negative = inhibition"
CCOC(=O)CSc1nnc(Cc2ccccc2)n1Cc1ccco1,"inconclusive: 3.98 µM [inhibitor, single point]",
N#Cc1nc(Cc2ccccc2)oc1N1CCN(c2ccccc2)CC1,"inconclusive: 12.6 µM [activator, partial curve]",
O=c1c2cccnc2[nH]c(=S)n1CCCN1CCN(c2ccc(F)cc2)CC1,"inconclusive: 12.6 µM [inhibitor, partial curve]",
CCN(CC)c1ccc(C(=O)NN)cc1,inactive,
N#Cc1ccc(CN2CC3(CCN(C(=O)c4cnccn4)CC3)C2)cc1,inactive,
Cc1ccc(C(c2nnnn2C(C)(C)C)N2CCC(C)CC2)cc1 (stereo not given),"inconclusive: 25.1 µM [activator, single point]",
O=C(Nc1ccc(Cl)cn1)C1C(c2ccccc2)C1(Cl)Cl (stereo not given),"inconclusive: 35.5 µM [activator, single point]",
CC(Sc1nc2cc(Cl)ccc2s1)C(=O)Nc1cccc(S(=O)(=O)N2CCOCC2)c1 (stereo not given),"inconclusive: 31.6 µM [activator, single point]",
Oc1ccc(Cl)cc1/C=N/c1nccs1,inactive,
COc1nnc(-c2ccc(C)c(S(=O)(=O)N(C)C)c2)c2ccccc12,"inconclusive: 31.6 µM [activator, single point]",
CCOc1ccc2[nH]c(=O)c(CN(Cc3ccccc3OC)C(=O)c3ccccc3)cc2c1,inactive,
Cn1c(-c2nonc2N)nc2ccccc21,"inconclusive: 20 µM [inhibitor, single point]",
O=[N+]([O-])c1ccc(/C=C/c2ccc3cccc(O)c3n2)cc1,active: 2.51 µM,
Brc1ccc(-c2noc(-c3ccccn3)n2)o1,"inconclusive: 8.91 µM [inhibitor, partial curve, poor fit]",
C#CC(C)(CC)NC(=O)c1cc2nc(C3CC3)cc(C(F)(F)F)n2n1 (stereo not given),"inconclusive: 17.8 µM [activator, partial curve, poor fit]",
COc1ccc(C2c3c(ncn(Cc4ccco4)c3=N)Oc3ccc4ccccc4c32)cc1 (stereo not given),active: 17.8 µM,
CNS(=O)(=O)c1cccc(C(=O)OCc2csc(-c3ccccc3)n2)c1,"inconclusive: 12.6 µM [activator, partial curve]",
CSc1ccc(/C=c2\s/c(=C\C(=O)C(C)(C)C)n(CC(=O)NCCC3=CCCCC3)c2=O)cc1,inactive,
COc1cc(NC(=O)C2CCCO2)c(OC)cc1NC(=O)c1ccccc1 (stereo not given),"inconclusive: 35.5 µM [activator, single point]",
O=C(Oc1ccccc1N1CCOCC1)c1ccccc1,"inconclusive: 1.41 µM [activator, partial curve]",
O=[N+]([O-])c1ccc(N2CCN(Cc3ccccc3)CC2)c(S(=O)(=O)N2CCOCC2)c1,"inconclusive: 12.6 µM [activator, partial curve]",
Cc1cc2cc(CN(Cc3cccs3)C(c3nnnn3C(C)(C)C)C(C)C)c3nnnn3c2cc1C (stereo not given),"inconclusive: 0.708 µM [inhibitor, full curve, poor fit]",
COc1ccc(C(=O)NNC(=S)NC(=O)c2cccnc2)cc1,"inconclusive: 35.5 µM [inhibitor, single point]",
COC(=O)c1cc(OC)c(OC)cc1NC(=S)N1CCN(c2ccccn2)CC1,active: 11.2 µM,

Structure (SMILES),Potency,"activity change, negative = inhibition"
Oc1ccc(N=Nc2cccc(C(F)(F)F)c2)cc1C=Nc1ccc(N2CCOCC2)cc1,,inactive: -43.9% [at 10 µM]
Cc1c(Cl)cccc1NCC(=O)Nc1ccc(Cl)cc1F,"inconclusive: 31.6 µM [activator, single point]",
COc1cc(OC)c(/C=C2\SC(=O)N(CC(=O)Nc3ccccc3F)C2=O)c(OC)c1,,inactive: -3.15% [at 1.91 µM]
CCN=C(NS(=O)(=O)c1ccc(Br)cc1)c1ccc(Cl)cc1,inactive,
Cc1ccccc1-n1c(-c2cccnc2)n[nH]c1=S,"inconclusive: 25.1 µM [inhibitor, single point]",
COC(=O)COc1ccc2c(c1C)O/C(=C\c1ccco1)C2=O,"inconclusive: 35.5 µM [inhibitor, single point]",
CCN1C(=O)/C(=C/c2nc3ccccc3c(=O)n2-c2ccc(C)cc2)c2ccccc21,"inconclusive: 12.6 µM [activator, single point]",
COc1ccc(/C=C2\Oc3cc(OC(=O)N4CCOCC4)ccc3C2=O)cc1,"inconclusive: 12.6 µM [activator, partial curve]",
CCOc1ccc(C(=O)Nc2nc3ccccc3[nH]2)cc1OCC,active: 1.41 µM,
O=C(CN1CCN(c2ccccc2O)CC1)NC(c1ccccc1)c1ccccc1,inactive,
O=C(C#Cc1ccccc1)c1ccc([N+](=O)[O-])cc1,active: 11.2 µM,
CC(C)Oc1cccc(C(=O)C2CCCN(S(=O)(=O)C(C)C)C2)c1 (stereo not given),"inconclusive: 11.2 µM [activator, partial curve]",
O=C(NC(=S)Nc1nc(-c2ccc(Br)cc2)cs1)c1ccco1,active: 2.82 µM,
CC(=O)c1sc2nc(CSc3nnnn3-c3ccccc3)[nH]c(=O)c2c1C,"inconclusive: 35.5 µM [inhibitor, single point]",
COc1ccc(C(N)CCc2ccco2)cc1 (stereo not given),inactive,
COc1cc(C(=O)Nc2ccc(S(=O)(=O)NC(C)C)cc2)cc(OC)c1OC,inactive,
O=C(c1cc(-c2cccs2)on1)N1CCCc2ccccc21,inactive,
CC(=O)c1c(C)[nH]c(C(=O)Nc2nccs2)c1C,"inconclusive: 17.8 µM [inhibitor, single point]",
CCN(CC)C(=O)C1CCN(S(=O)(=O)c2ccc3oc4ccccc4c3c2)CC1,"inconclusive: 17.8 µM [activator, partial curve]",
COc1ccc(O)c(/C=N/c2nc3ccccc3n2C)c1,"inconclusive: 35.5 µM [inhibitor, single point]",
O=C(Nc1cccc(C(=O)NC2CCCC2)c1)c1ccccc1,inactive,
Cc1ccc(C2=NC3(CCCC3)N=C2SCC(=O)Nc2ccc3c(c2)OCCO3)cc1,"inconclusive: 11.2 µM [activator, partial curve]",
COc1ccccc1CN(C(=O)CNC(=O)c1ccco1)C(C(=O)NCC1CCCO1)c1ccc(OC)c(OC)c1 (stereo not given),inactive,
CC(=O)N1c2ccc(S(=O)(=O)N3CCCC(C(=O)Nc4ccc(F)cc4)C3)cc2CC1C (stereo not given),"inconclusive: 12.6 µM [activator, partial curve]",

Structure (SMILES),Potency,"activity change, negative = inhibition"
COc1ccc(-c2[nH]c(-c3cccc(OC)c3)nc2SCC(=O)NC2CCCC2)cc1,"inconclusive: 12.6 µM [activator, partial curve]",
CC(NC(=S)Nc1ccc(Cl)cc1Cl)C(c1cccs1)N1CCCC1 (stereo not given),active: 11.2 µM,
CCNS(=O)(=O)c1ccc(NC(=O)Nc2cccc(C(F)(F)F)c2)cc1,"inconclusive: 20 µM [activator, single point]",
Cc1cc(C)c2c(N)c(C(=O)NN)sc2n1,"inconclusive: 10 µM [inhibitor, partial curve, poor fit]",
O=C(COc1ccccc1)Nc1nnc(-c2ccc(F)cc2)o1,"inconclusive: 1.26 µM [inhibitor, full curve, poor fit]",
Cc1ccc(C(=O)Nc2ccccc2C(=O)N2CCOCC2)cc1[N+](=O)[O-],"inconclusive: 11.2 µM [activator, partial curve]",
CC(=O)c1ccc(OCCNS(=O)(=O)c2ccc(-n3cnnn3)cc2)cc1,"inconclusive: 35.5 µM [activator, single point]",
COCCCNC(=S)N1CCN(c2nc3ccccc3s2)CC1,"inconclusive: 22.4 µM [activator, single point]",
CCC(=O)Nc1ccc2c(c1)C(=O)N(C1CCCCC1)C2=O,"inconclusive: 15.8 µM [inhibitor, single point]",
N#C/C(=N\Nc1cccc2ccccc12)c1nnc2n1CCCCC2,"inconclusive: 17.8 µM [inhibitor, partial curve, poor fit]",
CCc1ccc(NS(=O)(=O)c2ccc3[nH]c(=O)[nH]c3c2)cc1,"inconclusive: 35.5 µM [activator, single point]",
O=[N+]([O-])c1cccc(Cl)c1NCCNS(=O)(=O)c1ccc(Cl)cc1,"inconclusive: 22.4 µM [activator, single point]",
Cc1nn(Cc2ccc(Cl)cc2)c(C)c1NC(=O)CSc1n[nH]c(C)c1[N+](=O)[O-],inactive,
Cc1cc2c(C)nc(-c3ccccc3)nc2o1,"inconclusive: 0.251 µM [activator, full curve]",
S=c1[nH]cc(-c2ccc(Cl)cc2)n1Cc1ccccc1,active: 2.51 µM,
O=C(Nc1ccccc1Cl)O/N=C(/c1ccccc1)c1ccccn1,"inconclusive: 12.6 µM [inhibitor, single point]",
S=C(NNC(=S)NC1CC2CCC1C2)NC1CC2C=CC1C2 (stereo not given),"inconclusive: 10 µM [inhibitor, partial curve]",
O=C(Oc1ccc(C(=S)N2CCOCC2)cc1)c1ccccc1F,inactive,
O=C(C(=O)N1CCN(Cc2ccc3c(c2)OCO3)CC1)c1c[nH]c2ccccc12,"inconclusive: 35.5 µM [activator, single point]",
COc1cc(NS(=O)(=O)c2ccc(OC)c(C)c2C)c(OC)cc1Cl,"inconclusive: 15.8 µM [inhibitor, single point]",
Cc1ccc(NC(=S)NC(=O)c2ccc(-c3ccc(Cl)cc3)o2)c(O)c1,inactive,
COc1ccc2[nH]cc(CCNc3ccnc(-c4ccc(N(C)C)cc4)n3)c2c1,"inconclusive: 10 µM [inhibitor, single point]",

# 5 entries from above, reformatted.
Structure (SMILES)	Potency	activity change, negative = inhibition
CC(NC(=S)Nc1ccc(Cl)cc1Cl)C(c1cccs1)N1CCCC1 (stereo not given)	active: 11.2 µM	
CCNS(=O)(=O)c1ccc(NC(=O)Nc2cccc(C(F)(F)F)c2)cc1	inconclusive: 20 µM [activator, single point]	
Cc1cc(C)c2c(N)c(C(=O)NN)sc2n1	inconclusive: 10 µM [inhibitor, partial curve, poor fit]	
O=C(COc1ccccc1)Nc1nnc(-c2ccc(F)cc2)o1	inconclusive: 1.26 µM [inhibitor, full curve, poor fit]	
Cc1ccc(C(=O)Nc2ccccc2C(=O)N2CCOCC2)cc1[N+](=O)[O-]	inconclusive: 11.2 µM [activator, partial curve]	
